The source of these data is publication doi:10.1101/513028.

Amino acid sequences for entries named in this document (tags omitted). A change or cut given only in a name is not applied to a line headed by its entry. Chains listed by the source or under a name are the forms on record and can include a tag or linker.
UniProt P40793: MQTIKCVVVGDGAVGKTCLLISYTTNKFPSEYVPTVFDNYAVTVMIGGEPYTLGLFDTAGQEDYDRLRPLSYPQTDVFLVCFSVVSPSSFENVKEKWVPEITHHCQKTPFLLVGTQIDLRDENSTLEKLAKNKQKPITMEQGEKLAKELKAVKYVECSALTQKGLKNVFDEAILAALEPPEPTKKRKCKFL
GST::Cdc42^V12 (P40793, form named): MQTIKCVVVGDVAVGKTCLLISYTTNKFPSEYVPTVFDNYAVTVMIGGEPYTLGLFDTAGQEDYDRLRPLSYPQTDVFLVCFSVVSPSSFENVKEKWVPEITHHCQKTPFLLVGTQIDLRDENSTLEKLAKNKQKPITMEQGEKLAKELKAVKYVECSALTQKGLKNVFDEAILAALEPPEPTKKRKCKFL

The target of assay [1] is GST::Cdc42^V12 (Drosophila) (UniProt P40793). The assay is described as follows: pull-down.
Assay [2] addresses T1, Par6^K23A::Flag (Drosophila) (UniProt O97111).
T1 sequence: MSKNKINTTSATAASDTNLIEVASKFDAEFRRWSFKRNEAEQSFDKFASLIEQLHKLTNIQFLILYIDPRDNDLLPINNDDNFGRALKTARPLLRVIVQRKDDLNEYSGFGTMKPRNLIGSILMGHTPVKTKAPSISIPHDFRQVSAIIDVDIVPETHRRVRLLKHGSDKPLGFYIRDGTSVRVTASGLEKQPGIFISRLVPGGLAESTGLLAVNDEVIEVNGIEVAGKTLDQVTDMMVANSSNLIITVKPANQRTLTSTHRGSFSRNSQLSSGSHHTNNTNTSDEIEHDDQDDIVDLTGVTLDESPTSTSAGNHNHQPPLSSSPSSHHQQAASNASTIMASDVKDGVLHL
The assay is described as follows: co-IP.

The target in assay [3] is T2, Par6^Δ139P::Flag (Drosophila) (UniProt O97111).
T2 sequence: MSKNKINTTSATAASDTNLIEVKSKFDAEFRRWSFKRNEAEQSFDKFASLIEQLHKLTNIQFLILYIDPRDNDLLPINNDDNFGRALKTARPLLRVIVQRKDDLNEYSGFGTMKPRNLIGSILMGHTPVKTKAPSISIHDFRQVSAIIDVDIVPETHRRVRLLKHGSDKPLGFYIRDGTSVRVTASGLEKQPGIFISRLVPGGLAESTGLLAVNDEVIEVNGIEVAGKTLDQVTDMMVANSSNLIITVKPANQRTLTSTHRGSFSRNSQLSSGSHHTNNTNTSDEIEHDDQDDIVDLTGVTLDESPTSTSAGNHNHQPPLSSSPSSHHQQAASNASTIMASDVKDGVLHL
The assay is described as follows: co-IP.

Assay [4] addresses T3, Par6^KPLG170-173AAAA::Flag (Drosophila) (UniProt O97111).
T3 sequence: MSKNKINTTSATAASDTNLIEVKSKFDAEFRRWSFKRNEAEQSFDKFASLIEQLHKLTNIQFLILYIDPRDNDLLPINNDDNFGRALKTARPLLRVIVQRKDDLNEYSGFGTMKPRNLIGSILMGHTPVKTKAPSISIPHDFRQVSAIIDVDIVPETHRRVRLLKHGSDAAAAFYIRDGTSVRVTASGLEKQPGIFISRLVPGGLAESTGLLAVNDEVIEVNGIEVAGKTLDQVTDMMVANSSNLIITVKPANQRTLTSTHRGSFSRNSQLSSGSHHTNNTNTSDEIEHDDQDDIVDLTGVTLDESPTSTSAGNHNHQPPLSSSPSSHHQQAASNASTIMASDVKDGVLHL
Description: co-IP.

Assay [5] concerns the target T4, Par6::Flag (wild type) (Drosophila) (UniProt O97111).
T4 sequence: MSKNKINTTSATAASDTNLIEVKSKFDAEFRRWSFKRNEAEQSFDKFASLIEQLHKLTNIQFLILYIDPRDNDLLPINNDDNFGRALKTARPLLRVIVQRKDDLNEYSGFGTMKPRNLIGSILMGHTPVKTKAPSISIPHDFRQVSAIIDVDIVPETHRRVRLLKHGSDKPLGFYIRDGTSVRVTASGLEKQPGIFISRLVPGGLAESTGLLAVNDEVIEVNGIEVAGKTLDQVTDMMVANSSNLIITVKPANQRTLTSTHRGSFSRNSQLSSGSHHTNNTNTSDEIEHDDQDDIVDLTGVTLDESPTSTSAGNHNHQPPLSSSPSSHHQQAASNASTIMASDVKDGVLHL
The assay is described as follows: co-IP.

No constants are given. Whether binding was seen depends on the method and setting. In cells and extracts the contact can be indirect. Some entries that bind do so weakly or less than the wild type. Tags and fused reporters may be left off the sequences shown.

B1: Par6^Δ139P::Flag (protein, UniProt O97111 1-351)
chain: MSKNKINTTSATAASDTNLIEVKSKFDAEFRRWSFKRNEAEQSFDKFASLIEQLHKLTNIQFLILYIDPRDNDLLPINNDDNFGRALKTARPLLRVIVQRKDDLNEYSGFGTMKPRNLIGSILMGHTPVKTKAPSISIHDFRQVSAIIDVDIVPETHRRVRLLKHGSDKPLGFYIRDGTSVRVTASGLEKQPGIFISRLVPGGLAESTGLLAVNDEVIEVNGIEVAGKTLDQVTDMMVANSSNLIITVKPANQRTLTSTHRGSFSRNSQLSSGSHHTNNTNTSDEIEHDDQDDIVDLTGVTLDESPTSTSAGNHNHQPPLSSSPSSHHQQAASNASTIMASDVKDGVLHL
B1: the binding entry in assay [1] is given as “no binding”.

B2: aPKC (endogenous) (enzyme, UniProt A1Z9X0 1-606)
chain: MQKMPSQILNDGSSVSLNSASMNMANTPNSITVKTAYNGQIIITTINKNISYEELCYEIRNICRFPLDQPFTIKWVDEENDPCTISTKMELDEAIRLYEMNFDSQLVIHVFPNVPQAPGLSCDGEDRSIYRRGARRWRKLYRVNGHIFQAKRFNRRAFCAYCQDRIWGLGRQGFKCIQCKLLVHKKCHKLVQKHCTDQPEPLVKERAEESSDPIPVPLPPLPYEAMSGGAEACETHDHAHIVAPPPPEDPLEPGTQRQYSLNDFELIRVIGRGSYAKVLMVELRRTRRIYAMKVIKKALVTDDEDIDWVQTEKHVFETASNHPFLVGLHSCFQTPSRLFFVIEFVRGGDLMYHMQRQRRLPEEHARFYAAEISLALNFLHEKGIIYRDLKLDNVLLDHEGHIKLTDYGMCKEGIRPGDTTSTFCGTPNYIAPEILRGEDYGFSVDWWALGVLLYEMLAGRSPFDLAGASENPDQNTEDYLFQVILEKTIRIPRSLSVRAASVLKGFLNKNPADRLGCHRESAFMDIVSHPFFKNMDWELLERKQVTPPFKPRLDSDRDLANFPPEFTGEAVQLTPDDDHVIDNIDQSEFEGFEYVNPLLMSLEDCV
On to B2, for which the binding entry in assay [2] is “no binding”; in assay [3], “binds”; in assay [4], “binds”; in assay [5], “binds”.

B3: Par6::Flag (wild type) (protein, UniProt O97111 1-351)
chain: MSKNKINTTSATAASDTNLIEVKSKFDAEFRRWSFKRNEAEQSFDKFASLIEQLHKLTNIQFLILYIDPRDNDLLPINNDDNFGRALKTARPLLRVIVQRKDDLNEYSGFGTMKPRNLIGSILMGHTPVKTKAPSISIPHDFRQVSAIIDVDIVPETHRRVRLLKHGSDKPLGFYIRDGTSVRVTASGLEKQPGIFISRLVPGGLAESTGLLAVNDEVIEVNGIEVAGKTLDQVTDMMVANSSNLIITVKPANQRTLTSTHRGSFSRNSQLSSGSHHTNNTNTSDEIEHDDQDDIVDLTGVTLDESPTSTSAGNHNHQPPLSSSPSSHHQQAASNASTIMASDVKDGVLHL
On to B3, for which the binding result in assay [1] is recorded as “binds”.

B4: Par6^KPLG170-173AAAA::Flag (protein, UniProt O97111 1-351)
chain: MSKNKINTTSATAASDTNLIEVKSKFDAEFRRWSFKRNEAEQSFDKFASLIEQLHKLTNIQFLILYIDPRDNDLLPINNDDNFGRALKTARPLLRVIVQRKDDLNEYSGFGTMKPRNLIGSILMGHTPVKTKAPSISIPHDFRQVSAIIDVDIVPETHRRVRLLKHGSDAAAAFYIRDGTSVRVTASGLEKQPGIFISRLVPGGLAESTGLLAVNDEVIEVNGIEVAGKTLDQVTDMMVANSSNLIITVKPANQRTLTSTHRGSFSRNSQLSSGSHHTNNTNTSDEIEHDDQDDIVDLTGVTLDESPTSTSAGNHNHQPPLSSSPSSHHQQAASNASTIMASDVKDGVLHL
As to B4, the binding entry in assay [1] is given as “binds”.

B5: Par6^K23A::Flag (protein, UniProt O97111 1-351)
chain: MSKNKINTTSATAASDTNLIEVASKFDAEFRRWSFKRNEAEQSFDKFASLIEQLHKLTNIQFLILYIDPRDNDLLPINNDDNFGRALKTARPLLRVIVQRKDDLNEYSGFGTMKPRNLIGSILMGHTPVKTKAPSISIPHDFRQVSAIIDVDIVPETHRRVRLLKHGSDKPLGFYIRDGTSVRVTASGLEKQPGIFISRLVPGGLAESTGLLAVNDEVIEVNGIEVAGKTLDQVTDMMVANSSNLIITVKPANQRTLTSTHRGSFSRNSQLSSGSHHTNNTNTSDEIEHDDQDDIVDLTGVTLDESPTSTSAGNHNHQPPLSSSPSSHHQQAASNASTIMASDVKDGVLHL
B5: the binding result in assay [1] is recorded as “binds”.
